Publication doi:10.1101/2021.03.11.434947
These are yes or no findings as the source states them, for the method shown. Binding seen in cells or lysates may run through a third protein. Some entries that bind do so weakly or less than the wild type. Sequences can lack the tags named with a protein.

Molecular target: T1, Nord-HA (Drosophila) (UniProt Q9W192)
T1 sequence: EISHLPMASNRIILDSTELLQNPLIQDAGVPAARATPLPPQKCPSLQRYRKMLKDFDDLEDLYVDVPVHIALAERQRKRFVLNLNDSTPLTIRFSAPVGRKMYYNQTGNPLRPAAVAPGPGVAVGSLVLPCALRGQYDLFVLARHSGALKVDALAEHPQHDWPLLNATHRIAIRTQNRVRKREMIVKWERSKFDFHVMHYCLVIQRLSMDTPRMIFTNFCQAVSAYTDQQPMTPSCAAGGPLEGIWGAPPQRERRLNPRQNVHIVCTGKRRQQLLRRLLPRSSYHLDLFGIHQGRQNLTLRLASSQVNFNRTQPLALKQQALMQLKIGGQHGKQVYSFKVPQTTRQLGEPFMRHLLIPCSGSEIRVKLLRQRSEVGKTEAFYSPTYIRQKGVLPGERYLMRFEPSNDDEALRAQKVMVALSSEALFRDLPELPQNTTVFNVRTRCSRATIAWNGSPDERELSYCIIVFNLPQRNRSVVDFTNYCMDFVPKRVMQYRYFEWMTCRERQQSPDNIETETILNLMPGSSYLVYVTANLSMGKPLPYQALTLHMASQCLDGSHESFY
Assay: co-IP

B1: Dally-Myc (protein, UniProt Q24114 27-602)
chain: KHLDLDGIHHHQHHLHSATTHHRRRLQRDSRAKDAVGGSTHQCDAVKSYFESIDIKSSGTYSEKGAICGGNCCNNATELELRDKAAGMFEQLLHHHTSSLRGVLETNAKQFQSHVLELAQISENMTHSLFSKVYTRMVPSSRMMIHQLYTEIMNHLIYTSNYTNSNGQLGRRGIGSVQSNLEEAVRHFFVQLFPVAYHQMVHLSKNNLGDLHEDYVNCLQHNFDEMHPFGDIPQQVQSNLGKSVHMSNVFMNALLQAAEVLSEADALYGEQLTDTCKLHLLKMHYCPNCNGHHSSSRSETKLCYGYCKNVMRGCSAEYAGLLDSPWSGVVDSLNNLVTTHILSDTGIINVIKHLQTYFSEAIMAAMHNGPELEKKVKKTCGTPSLTPYSSGEPDARPPPHKNNVKWATDPDPGMVLFLSTIDKSKEFYTTIVDNFCDEQQHSRDDHSCWSGDRFGDYTQLLINPGTDSQRYNPEVPFNAKAQTGKLNELVDKLFKIRKSIGAAAPSNSIQATHDIQNDMGEGSGGGEGQIGDDEEEYGGAHGSGDGSGDGPHTPIEESEGTTTNEVESRDSGKTSG
modifications: heparan sulfate (HS) modification
For B1, the binding was “binds”.
